Reference: PubChem BioAssay AID1259308 (NCATS, 2017)
Aim: 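Candidate targets for better recombinant protein yield in mammalian cells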 (primary screen). System: human HEK293 embryonic kidney cells stably expressing firefly luciferase (HEK-CMV-Luc2-Hygro). Reagent: single siRNA against human genes, 0.8 pmol siRNA per well. Timing: 72 h. Detection: 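Reporter luminescence and viable-cell signal on separate replicate plates, given as percent of non-targeting control and median/MAD z-scores, plus per-cell luciferase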. Direction: total luciferase, z-score and total luciferase, % of control: higher = more reporter protein produced; luciferase per cell, z-score: higher = more reporter output per viable cell; viable cells, % of control: higher = more viable cells. Call rule: 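Active when the median/MAD z-score for overall luciferase is greater than 3; a gene was taken forward for validation with new siRNAs if at least two of its three siRNAs passed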. Calls: active = raised luciferase; inactive = no rise.
Here is a random part of about 59,000 reagents. In the full data, about 1,510 (2.6%) are marked active. 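Calls use total luciferase alone and ignore viability, so some active siRNAs may act by altering cell number.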 The numbers tell different reagents against one gene apart. No sequences are given here.

| gene knocked down | reagent no. | total luciferase, z-score | total luciferase, % of control | luciferase per cell, z-score | viable cells, % of control | Call |
| --- | --- | --- | --- | --- | --- | --- |
| KIR2DL1 | 1 | 1.6 | 114 | 3.29 | 53.4 | inactive |
| KIR2DL1 | 2 | 1.63 | 114 | 1.19 | 93.3 | inactive |
| KIR2DL1 | 3 | 0.278 | 87.4 | 0.411 | 87.7 | inactive |
| TTLL7 | 1 | 0.533 | 92.5 | -0.629 | 122 | inactive |
| TTLL7 | 2 | -0.81 | 65.8 | -0.386 | 81.4 | inactive |
| TTLL7 | 3 | -0.748 | 67 | -0.992 | 97.2 | inactive |
| UBE2V2 | 1 | 0.704 | 95.9 | 1.4 | 74.2 | inactive |
| UBE2V2 | 2 | 0.0969 | 83.8 | 1.3 | 66.5 | inactive |
| UBE2V2 | 3 | 1.44 | 111 | 1.24 | 89.3 | inactive |
| ENKUR | 1 | -0.376 | 74.4 | -0.158 | 86.7 | inactive |
| ENKUR | 2 | -1.7 | 48.1 | 0.0776 | 52.7 | inactive |
| ENKUR | 3 | -0.859 | 64.8 | -0.7 | 87 | inactive |
| S1PR1 | 1 | 0.497 | 91.8 | 0.432 | 91.5 | inactive |
| S1PR1 | 2 | 0.93 | 100 | 0.973 | 86.8 | inactive |
| S1PR1 | 3 | -0.356 | 74.8 | -0.409 | 93.1 | inactive |
| PPP1R3B | 1 | 1.61 | 114 | 1.82 | 79 | inactive |
| PPP1R3B | 2 | -0.337 | 75.2 | -0.705 | 101 | inactive |
| PPP1R3B | 3 | 0.859 | 99 | 0.731 | 91.2 | inactive |
| SLC22A8 | 1 | 0.883 | 99.5 | 0.7 | 92.4 | inactive |
| SLC22A8 | 2 | 1.25 | 107 | 1.08 | 89.8 | inactive |
| SLC22A8 | 3 | 0.75 | 96.8 | 0.0887 | 106 | inactive |
| SENP7 | 1 | -1.2 | 58.1 | -0.793 | 79.9 | inactive |
| SENP7 | 2 | -1.06 | 60.8 | -1.67 | 105 | inactive |
| SENP7 | 3 | 0.535 | 92.5 | 0.0418 | 102 | inactive |
| ART1 | 1 | -0.849 | 65 | -1.18 | 99.2 | inactive |
| ART1 | 2 | -0.514 | 71.7 | -0.788 | 98.5 | inactive |
| ART1 | 3 | 0.482 | 91.5 | 1.39 | 70.9 | inactive |
| TNFAIP6 | 1 | -1.03 | 61.4 | -1.81 | 111 | inactive |
| TNFAIP6 | 2 | -0.614 | 69.7 | -0.224 | 82.6 | inactive |
| TNFAIP6 | 3 | 0.231 | 86.5 | 2.24 | 53.5 | inactive |
| DNA2 | 1 | 0.269 | 87.2 | 0.327 | 89.4 | inactive |
| DNA2 | 2 | -0.772 | 66.5 | -1.09 | 99 | inactive |
| DNA2 | 3 | 2.07 | 123 | 2.4 | 73.1 | inactive |

9 entries from above, set out differently.
{"gene knocked down": "PPP1R3B", "reagent no.": 1, "total luciferase, z-score": 1.61, "total luciferase, % of control": 114, "luciferase per cell, z-score": 1.82, "viable cells, % of control": 79, "Call": "inactive"}
{"gene knocked down": "PPP1R3B", "reagent no.": 2, "total luciferase, z-score": -0.337, "total luciferase, % of control": 75.2, "luciferase per cell, z-score": -0.705, "viable cells, % of control": 101, "Call": "inactive"}
{"gene knocked down": "PPP1R3B", "reagent no.": 3, "total luciferase, z-score": 0.859, "total luciferase, % of control": 99, "luciferase per cell, z-score": 0.731, "viable cells, % of control": 91.2, "Call": "inactive"}
{"gene knocked down": "SLC22A8", "reagent no.": 1, "total luciferase, z-score": 0.883, "total luciferase, % of control": 99.5, "luciferase per cell, z-score": 0.7, "viable cells, % of control": 92.4, "Call": "inactive"}
{"gene knocked down": "SLC22A8", "reagent no.": 2, "total luciferase, z-score": 1.25, "total luciferase, % of control": 107, "luciferase per cell, z-score": 1.08, "viable cells, % of control": 89.8, "Call": "inactive"}
{"gene knocked down": "SLC22A8", "reagent no.": 3, "total luciferase, z-score": 0.75, "total luciferase, % of control": 96.8, "luciferase per cell, z-score": 0.0887, "viable cells, % of control": 106, "Call": "inactive"}
{"gene knocked down": "SENP7", "reagent no.": 1, "total luciferase, z-score": -1.2, "total luciferase, % of control": 58.1, "luciferase per cell, z-score": -0.793, "viable cells, % of control": 79.9, "Call": "inactive"}
{"gene knocked down": "SENP7", "reagent no.": 2, "total luciferase, z-score": -1.06, "total luciferase, % of control": 60.8, "luciferase per cell, z-score": -1.67, "viable cells, % of control": 105, "Call": "inactive"}
{"gene knocked down": "SENP7", "reagent no.": 3, "total luciferase, z-score": 0.535, "total luciferase, % of control": 92.5, "luciferase per cell, z-score": 0.0418, "viable cells, % of control": 102, "Call": "inactive"}

The list goes on:
| gene knocked down | reagent no. | total luciferase, z-score | total luciferase, % of control | luciferase per cell, z-score | viable cells, % of control | Call |
| --- | --- | --- | --- | --- | --- | --- |
| UBE2G1 | 1 | 1.49 | 111 | 0.824 | 100 | inactive |
| UBE2G1 | 2 | 0.146 | 84.8 | 0.15 | 91.1 | inactive |
| UBE2G1 | 3 | -0.59 | 70.1 | -0.386 | 86.8 | inactive |
| LOC646853 | 1 | -0.546 | 71 | -0.299 | 85.9 | inactive |
| LOC646853 | 2 | 0.104 | 84 | -0.513 | 107 | inactive |
| LOC646853 | 3 | 0.474 | 91.3 | 0.179 | 97.4 | inactive |
| SERBP1 | 1 | -0.794 | 66.1 | -0.901 | 93.6 | inactive |
| SERBP1 | 2 | -1.15 | 59 | -1.23 | 91.2 | inactive |
| SERBP1 | 3 | -0.502 | 71.9 | 1.46 | 54.8 | inactive |
| ALOX5 | 1 | -0.315 | 75.6 | -0.193 | 88.9 | inactive |
| ALOX5 | 2 | 0.973 | 101 | 0.674 | 94.7 | inactive |
| ALOX5 | 3 | -0.0446 | 81 | 0.152 | 87 | inactive |
| CDKL2 | 1 | 0.833 | 98.5 | 1.15 | 81.3 | inactive |
| CDKL2 | 2 | -0.885 | 64.3 | -1.03 | 94.3 | inactive |
| CDKL2 | 3 | -0.438 | 73.2 | -0.654 | 97.2 | inactive |
| LOC339902 | 1 | 2.37 | 129 | 2.56 | 73.5 | inactive |
| LOC339902 | 2 | 0.94 | 101 | 0.503 | 98.5 | inactive |
| LOC339902 | 3 | -0.716 | 67.6 | -0.74 | 91.9 | inactive |
| DEFB114 | 1 | 0.358 | 89 | 0.448 | 88.4 | inactive |
| DEFB114 | 2 | 0.812 | 98 | 1.51 | 73.5 | inactive |
| DEFB114 | 3 | 2.55 | 133 | 1.35 | 104 | inactive |
| LINC00477 | 1 | 2 | 122 | 1.16 | 100 | inactive |
| LINC00477 | 2 | 1.58 | 113 | 0.925 | 99.2 | inactive |
| LINC00477 | 3 | -1.12 | 59.6 | -1.37 | 95.5 | inactive |
| RAPGEF3 | 1 | 3.9 | 159 | 3.47 | 71.4 | active |
| RAPGEF3 | 2 | 0.363 | 89.1 | -0.228 | 106 | inactive |
| RAPGEF3 | 3 | 0.0104 | 82.1 | -0.587 | 107 | inactive |
| FAM184A | 1 | 0.513 | 92.1 | 0.229 | 96.9 | inactive |
| FAM184A | 2 | -0.942 | 63.2 | -0.924 | 90 | inactive |
| FAM184A | 3 | 0.112 | 84.1 | -0.376 | 104 | inactive |
| OR2D3 | 1 | 0.0183 | 82.3 | 0.0732 | 90.2 | inactive |
| OR2D3 | 2 | 0.77 | 97.2 | 1 | 83.4 | inactive |
| OR2D3 | 3 | 1.82 | 118 | 1.52 | 88.4 | inactive |
| TLX1NB | 1 | -1.06 | 60.9 | 0.251 | 63.7 | inactive |
| TLX1NB | 2 | -1.41 | 53.8 | -1.31 | 84.8 | inactive |
| TLX1NB | 3 | -0.689 | 68.2 | 2.87 | 35.7 | inactive |
| ATP6AP1L | 1 | -0.747 | 67 | -0.687 | 89.7 | inactive |
| ATP6AP1L | 2 | 3.83 | 158 | 2.71 | 86.5 | active |
| ATP6AP1L | 3 | 0.555 | 92.9 | 0.581 | 89.1 | inactive |
| MYH7 | 1 | 1.26 | 107 | 2.15 | 67.8 | inactive |
| MYH7 | 2 | -0.137 | 79.2 | 0.262 | 82.6 | inactive |
| MYH7 | 3 | 0.704 | 95.9 | 0.698 | 89.2 | inactive |
